From PubChem BioAssay record AID1224904 (Broad Institute, 2016).

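Control-channel Italica luciferase signal in doxycycline-induced 293T-iDUX4 cells, given as percent activity after a 24-hour treatment. The test concentration is not given here. Percent change in the Italica control signal; more negative values mean stronger inhibition, which points to nonspecific, tet-on or cytotoxic effects.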

Values are in %. Common to all entries: measured here: Italica tet-on control reporter. This is a side read-out of the assay, for part of the compounds, not drawn at random.

| # | Compound | activity change (%) |
|---|---|---|
| 1 | `C[C@@H]1CN([C@@H](C)CO)C(=O)c2c(c3ccccc3n2C)-c2ccccc2CO[C@H]1CN(C)C(=O)N[C@H](C)c1ccccc1` | -6.153 |
| 2 | `CN1c2ccc(C#Cc3cccnc3)cc2[C@H]2[C@H](CCN2C(=O)C2CCCCC2)[C@H]1CO` | -18.98 |
| 3 | `O=C(Cc1ccccn1)NCC[C@@H]1CC[C@@H](NC(=O)Nc2ccc(C(F)(F)F)cc2)[C@@H](CO)O1` | -36.31 |
| 4 | `O=S(=O)(c1ccccc1)N1CCCCN2[C@H](CO)[C@@H](c3ccc(-c4ccccc4F)cc3)[C@@H]2C1` | -14.91 |
| 5 | `COc1ccc2c3c(n(C)c2c1)[C@H](CO)N(Cc1cccc(F)c1)CC31CCN(C)CC1` | -11.2 |
| 6 | `O=S(=O)(c1ccc(F)cc1)N1CCCCN2[C@H](CO)[C@H](c3ccc(C#CC4CC4)cc3)[C@H]2C1` | -4.144 |
| 7 | `CC(C)NC(=O)NCC[C@@H]1CC[C@@H](NS(=O)(=O)c2ccc(Oc3ccccc3)cc2)[C@@H](CO)O1` | -4.534 |
| 8 | `O=C(C[C@@H]1C[C@H]2c3cc(NC(=O)Nc4ccc(C(F)(F)F)cc4)ccc3O[C@H]2[C@H](CO)O1)NCc1cc(F)ccc1F` | -68.88 |
| 9 | `CCC(=O)N(C)C[C@@H]1Oc2cc(-c3ccccc3C)ccc2S(=O)(=O)N([C@@H](C)CO)C[C@@H]1C` | -16.48 |
| 10 | `O=C(C[C@H]1C[C@@H]2c3cc(NC(=O)c4ccc5c(c4)OCO5)ccc3O[C@@H]2[C@@H](CO)O1)NCc1ccc(Oc2ccccc2)cc1` | -80.88 |
| 11 | `C[C@H](CO)N1C[C@H](C)[C@H](CN(C)S(=O)(=O)c2ccc(C#N)cc2)OCc2ccccc2-c2c(n(C)c3ccccc23)C1=O` | -48.62 |
| 12 | `COC(=O)C[C@@H]1CC[C@@H]2[C@@H](COc3ccc(NC(=O)Nc4cccc(C#N)c4)cc3C(=O)N2C)O1` | -14.83 |
| 13 | `COc1ccc2c3c([nH]c2c1)[C@@H](CO)N(S(=O)(=O)c1ccc(C)cc1)CC31CCN(C(=O)Cc2cccnc2)CC1` | -8.347 |
| 14 | `COc1cccc(S(=O)(=O)Nc2ccc3c(c2)C(=O)N(C)C[C@H](OC)[C@@H](C)CN(Cc2ccccc2F)[C@@H](C)CO3)c1` | -4.196 |
| 15 | `O=C(C[C@@H]1CC[C@H]2[C@@H](COC[C@H](O)CN2Cc2ccc(Oc3ccccc3)cc2)O1)N1CCCCC1` | -25.82 |
| 16 | `C[C@H](CO)N1C[C@H](C)[C@H](CN(C)C(=O)[C@H](C)c2ccccc2)OCc2ccccc2-c2c(n(C)c3ccccc23)C1=O` | -85.47 |
| 17 | `COc1ccc(-c2ccccc2[C@H]2[C@@H](C#N)N(C(=O)C3CCCCC3)[C@H]2CO)cc1` | -5.742 |
| 18 | `CO[C@@H]1CN(C)C(=O)c2cc(NC(=O)c3ccc4c(c3)OCO4)ccc2OC[C@H](C)N(CC2CC2)C[C@H]1C` | -0.9542 |
| 19 | `O=C(C[C@H]1CC[C@@H]2[C@H](COC[C@@H](O)CN2Cc2cccc(C(F)(F)F)c2)O1)NCc1ccc(F)cc1` | -17.06 |
| 20 | `CCN1[C@H](C(=O)NC2Cc3ccccc3C2)[C@@H](CO)[C@@H]2Cn3c(ccc(C4=CCCC4)c3=O)[C@@H]21` | -0.9595 |
| 21 | `COc1ccc2c3c([nH]c2c1)[C@@H](CO)N(C)CC31CCN(C(=O)c2ccccc2F)CC1` | -14.17 |
| 22 | `C[C@H](CO)N1C[C@H](C)[C@@H](CN(C)Cc2ccc(Cl)c(Cl)c2)OCc2ccccc2-c2c(n(C)c3ccccc23)C1=O` | -40 |
| 23 | `O=C(NCC1CC1)[C@H]1[C@H](CO)[C@H]2Cn3c(ccc(-c4cccc(F)c4)c3=O)[C@H]2N1CC1CCCC1` | -19.57 |
| 24 | `COc1ccccc1-c1ccc2c(c1)[C@H]1[C@H](CCN1S(=O)(=O)c1ccccc1F)[C@H](CO)N2` | -29.88 |
| 25 | `COc1ccccc1CNC(=O)C[C@@H]1C[C@@H]2c3cc(NS(=O)(=O)c4ccc(F)cc4)ccc3O[C@@H]2[C@@H](CO)O1` | -3.934 |
| 26 | `COc1ccc2c3c([nH]c2c1)[C@H](CO)N(Cc1ccccc1OC)CC31CCN(C)CC1` | -23 |
| 27 | `O=C(N[C@H]1CC[C@H](CCn2cc(-c3ccccc3)nn2)O[C@@H]1CO)c1ccccc1F` | -19.21 |
| 28 | `O=C(C[C@H]1CC[C@H]2[C@@H](COC[C@H](O)CN2S(=O)(=O)c2ccccc2)O1)NCc1ccc(-c2ccccc2)cc1` | -10.74 |
| 29 | `O=C(Cc1ccccn1)N1CC2(C1)[C@@H](c1ccccc1)[C@@H](CO)N2C(=O)c1ccncc1` | 0.4025 |
| 30 | `COc1ccc(S(=O)(=O)N(C)C[C@H]2OCc3ccccc3-c3c(n(C)c4ccccc34)C(=O)N([C@H](C)CO)C[C@H]2C)cc1` | -20.35 |
| 31 | `N#Cc1cccc(-c2ccc(C3[C@@H]4CN(Cc5ccccc5F)C[C@H]3N4)cc2)c1` (stereo not given in full) | -68.03 |
| 32 | `COc1cccc(S(=O)(=O)Nc2ccc3c(c2)[C@H]2C[C@@H](CC(=O)N[C@@H](C)c4ccccc4)O[C@H](CO)[C@H]2O3)c1` | -14.23 |
| 33 | `CN1c2ccc(-c3ccccc3F)cc2[C@@H]2[C@@H](CCN2C(=O)Nc2ccc(F)cc2)[C@@H]1CO` | -12.8 |
| 34 | `CCC(=O)N1CCCCN2[C@H](CO)[C@@H](c3ccc(/C=C/c4ccccc4)cc3)[C@@H]2C1` | -7.97 |
| 35 | `COc1ccccc1-c1ccc2c(c1)[C@H]1[C@H](CCN1S(=O)(=O)c1cccc(F)c1)[C@@H](CO)N2` | -55.35 |
| 36 | `N#Cc1cccc(-c2ccc3c(c2)[C@@H]2[C@@H](CCN2C(=O)c2ccc4c(c2)OCO4)[C@@H](CO)N3)c1` | -45 |
| 37 | `CN(C)C(=O)c1cccc(-c2ccc3c(c2)[C@H]2[C@H](CCN2Cc2ccccc2F)[C@H](CO)N3)c1` | -33.23 |
| 38 | `COCC#Cc1ccc([C@H]2[C@@H](CO)N3CCCCN(S(=O)(=O)c4ccccc4F)C[C@@H]23)cc1` | -23.74 |
| 39 | `CN(C)c1ccc2c(c1)[C@@H]1C[C@@H](CC(=O)NCc3ccc(-c4ccccc4)cc3)O[C@@H](CO)[C@@H]1O2` | -55.21 |
| 40 | `CN1c2ccc(C#Cc3ccc(F)cc3)cc2[C@@H]2[C@@H](CCN2S(=O)(=O)c2ccccc2F)[C@H]1CO` | -3.479 |
| 41 | `COc1ccc(S(=O)(=O)N2CCC3(CC2)CN(Cc2ccncc2)[C@@H](CO)c2[nH]c4cc(OC)ccc4c23)cc1` | 2.299 |
| 42 | `N#Cc1ccc(-c2ccc3c(c2)[C@H]2[C@H](CCN2C(=O)Cc2ccccc2)[C@H](CO)N3)cc1` | -52.74 |
| 43 | `N#Cc1cccc(-c2ccc([C@H]3[C@H](CO)N4CCCCN(C(=O)Nc5cccc(F)c5)C[C@@H]34)cc2)c1` | -12.01 |
| 44 | `CCCNC(=O)N1CC(=O)N2[C@H](C1)[C@@H](c1ccc(C#Cc3cccc(F)c3)cc1)[C@@H]2CO` | -26.91 |

The last 4 entries again:

| Compound | activity change (%) |
|---|---|
| `COc1ccc(S(=O)(=O)N2CCC3(CC2)CN(Cc2ccncc2)[C@@H](CO)c2[nH]c4cc(OC)ccc4c23)cc1` | 2.299 |
| `N#Cc1ccc(-c2ccc3c(c2)[C@H]2[C@H](CCN2C(=O)Cc2ccccc2)[C@H](CO)N3)cc1` | -52.74 |
| `N#Cc1cccc(-c2ccc([C@H]3[C@H](CO)N4CCCCN(C(=O)Nc5cccc(F)c5)C[C@@H]34)cc2)c1` | -12.01 |
| `CCCNC(=O)N1CC(=O)N2[C@H](C1)[C@@H](c1ccc(C#Cc3cccc(F)c3)cc1)[C@@H]2CO` | -26.91 |